Assay [1] relates to mIMCD3. Description: robust z score of cell number vs plate controls; higher = more cells (less cytotoxic). Particulars: 10 µM, 48 h.
The test system of assay [2] is mIMCD3. The assay can be described thus: robust z score of cilia incidence (% cells with single cilium) vs plate controls; higher = more ciliated cells. Particulars: 10 µM; 48 h; siRNA: siScr.
Assay [3] concerns mIMCD3. Description: robust z score of cilia incidence (% cells with single cilium) vs plate controls; higher = more ciliated cells (rescue of cilia loss). Particulars: 10 µM; 48 h; siRNA: siRpgrip1l.

Each structure is given as a SMILES string. Where a name gives a salt, the structure may show the parent alone. ± gives the standard deviation of the averaged measurements. The list shows a part of the results. Part of the spread comes from offsets between plates or batches.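 The cells are a mouse kidney inner medullary collecting duct line, silenced either for the ciliary gene Rpgrip1l or with a non-targeting control siRNA.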

For `Nc1nc(N)nc(-c2cc(Cl)ccc2Cl)n1` [Irsogladine maleate], the “robust z score of cell number” value with mIMCD3 [1] (siRNA: siRpgrip1l) was -3.78 ± 3.2; in the assay with mIMCD3 [1] (siRNA: siScr) it was -14.5 ± 15. In addition, the “robust z score of cilia incidence” value is 1.58 ± 1.2 in the assay with mIMCD3 [2] and -13.8 ± 0.38 with mIMCD3 [3].

As for `CC[N+](CC)(CC)CC(=O)Nc1c(C)cccc1C` [QX 314 bromide], the “robust z score of cell number” value in the assay with mIMCD3 [1] (siRNA: siRpgrip1l) was -3.68 ± 0.77; in the assay with mIMCD3 [1] (siRNA: siScr), -2.63 ± 1. Further, the “robust z score of cilia incidence” value in the assay with mIMCD3 [2] is -3.58 ± 2.5; in the assay with mIMCD3 [3] it was -7.59 ± 3.9.

As for `Cc1cc2nc3c(=O)[nH]c(=O)nc-3n(C)c2cc1C=O`, the “robust z score of cell number” value with mIMCD3 [1] (siRNA: siRpgrip1l) was -18.1 ± 9; in the assay with mIMCD3 [1] (siRNA: siScr), -16.6 ± 2.6. Further, the “robust z score of cilia incidence” value with mIMCD3 [2] was -3.54 ± 4.6; in the assay with mIMCD3 [3], -14.7 ± 8.1.

As for `COc1ccccc1N1CCN(CCN2C(=O)c3ccccc3C(C)(C)C2=O)CC1` [ARC 239 dihydrochloride], the entries for the “robust z score of cell number” value with mIMCD3 [1] (siRNA: siRpgrip1l) and in the assay on mIMCD3 [1] (siRNA: siScr) were -4.99 ± 1.7 and -6.54 ± 5, respectively. In addition, the “robust z score of cilia incidence” value in the assay with mIMCD3 [2] is -2.55 ± 4.7; with mIMCD3 [3], -10.2 ± 1.8.

With `CC(=O)N1CCN(c2ccc(OCC3COC(Cn4ccnc4)(c4ccc(Cl)cc4Cl)O3)cc2)CC1` (stereo not given) [Ketoconazole], the “robust z score of cell number” value was -61.4 ± 53 in the assay with mIMCD3 [1] (siRNA: siRpgrip1l) and -51.3 ± 1.2 in the assay with mIMCD3 [1] (siRNA: siScr). For the same compound, the “robust z score of cilia incidence” value in the assay on mIMCD3 [2] is -72.7 ± 11; with mIMCD3 [3] it was -41 ± 4.4.

Regarding `COC(=O)C1=C(C)NC(C)=C([N+](=O)[O-])[C@H]1c1ccccc1C(F)(F)F`, the figures for the “robust z score of cell number” value in the assay on mIMCD3 [1] (siRNA: siRpgrip1l) and in the assay with mIMCD3 [1] (siRNA: siScr) were -39.8 ± 44 and -6.28 ± 6.7, respectively. Further, the entries for the “robust z score of cilia incidence” value with mIMCD3 [2] and with mIMCD3 [3] were 4.86 ± 2.8 and -167 ± 110, respectively.

Turning to `Cc1ccccc1C(=O)c1ccc(Nc2ccc(Br)cc2N)cc1Cl`, the “robust z score of cell number” value in the assay on mIMCD3 [1] (siRNA: siRpgrip1l) was -31.6 ± 30; in the assay with mIMCD3 [1] (siRNA: siScr) it was -14.2 ± 13. For the same compound, the “robust z score of cilia incidence” value was -26.9 ± 18 in the assay on mIMCD3 [2] and -27 ± 2.4 in the assay on mIMCD3 [3].

As for `CC(CCc1ccc(O)cc1)NCCc1ccc(O)c(O)c1` (stereo not given) [Dobutamine hydrochloride], the “robust z score of cell number” value was -16.2 ± 15 in the assay with mIMCD3 [1] (siRNA: siRpgrip1l) and -12.8 ± 8.9 in the assay on mIMCD3 [1] (siRNA: siScr). For the same compound, the “robust z score of cilia incidence” value with mIMCD3 [2] is -0.0742 ± 0.34; in the assay with mIMCD3 [3] it was -16.7 ± 2.

For the compound `CCCCC[C@H](O)/C=C/[C@H]1[C@H](O)CC(=O)[C@@H]1CCCCCCC(=O)O` [Alprostadil], the “robust z score of cell number” value was -9.79 ± 6.7 with mIMCD3 [1] (siRNA: siRpgrip1l) and -7.87 ± 2.8 with mIMCD3 [1] (siRNA: siScr). Moreover, the “robust z score of cilia incidence” value in the assay with mIMCD3 [2] was -2.21 ± 4.6; with mIMCD3 [3] it was -11 ± 0.56.

With `COC(=O)[C@@H]1CC2=CC(=O)CC[C@]2(C)[C@@]23O[C@@H]2C[C@@]2(C)[C@@H](CC[C@@]24CCC(=O)O4)[C@H]13` [Eplerenone], the “robust z score of cell number” value is -5.2 ± 3.6 with mIMCD3 [1] (siRNA: siRpgrip1l) and 0.183 ± 2.3 in the assay on mIMCD3 [1] (siRNA: siScr). The “robust z score of cilia incidence” value with mIMCD3 [2] was 0.185 ± 0.39; in the assay with mIMCD3 [3], -7.56 ± 5.
